Measured values taken from PMC3532599, “Structural and Functional Integration of the PLCγ Interaction Domains Critical for Regulatory Mechanisms and Signaling Deregulation” (Structure(London, England:1993), 2012).
Results are given in words; binding and its absence hold for the method and conditions named. For part of these data: A result given as binding can be weak or reduced; the word gives no strength. For part of these data: Where a sequence is shown, tags or fusion partners need not be part of it.

T1: PLCγ1 cSH2 domain, wild type (human)
T1 sequence (P19174 whole entry, looked up): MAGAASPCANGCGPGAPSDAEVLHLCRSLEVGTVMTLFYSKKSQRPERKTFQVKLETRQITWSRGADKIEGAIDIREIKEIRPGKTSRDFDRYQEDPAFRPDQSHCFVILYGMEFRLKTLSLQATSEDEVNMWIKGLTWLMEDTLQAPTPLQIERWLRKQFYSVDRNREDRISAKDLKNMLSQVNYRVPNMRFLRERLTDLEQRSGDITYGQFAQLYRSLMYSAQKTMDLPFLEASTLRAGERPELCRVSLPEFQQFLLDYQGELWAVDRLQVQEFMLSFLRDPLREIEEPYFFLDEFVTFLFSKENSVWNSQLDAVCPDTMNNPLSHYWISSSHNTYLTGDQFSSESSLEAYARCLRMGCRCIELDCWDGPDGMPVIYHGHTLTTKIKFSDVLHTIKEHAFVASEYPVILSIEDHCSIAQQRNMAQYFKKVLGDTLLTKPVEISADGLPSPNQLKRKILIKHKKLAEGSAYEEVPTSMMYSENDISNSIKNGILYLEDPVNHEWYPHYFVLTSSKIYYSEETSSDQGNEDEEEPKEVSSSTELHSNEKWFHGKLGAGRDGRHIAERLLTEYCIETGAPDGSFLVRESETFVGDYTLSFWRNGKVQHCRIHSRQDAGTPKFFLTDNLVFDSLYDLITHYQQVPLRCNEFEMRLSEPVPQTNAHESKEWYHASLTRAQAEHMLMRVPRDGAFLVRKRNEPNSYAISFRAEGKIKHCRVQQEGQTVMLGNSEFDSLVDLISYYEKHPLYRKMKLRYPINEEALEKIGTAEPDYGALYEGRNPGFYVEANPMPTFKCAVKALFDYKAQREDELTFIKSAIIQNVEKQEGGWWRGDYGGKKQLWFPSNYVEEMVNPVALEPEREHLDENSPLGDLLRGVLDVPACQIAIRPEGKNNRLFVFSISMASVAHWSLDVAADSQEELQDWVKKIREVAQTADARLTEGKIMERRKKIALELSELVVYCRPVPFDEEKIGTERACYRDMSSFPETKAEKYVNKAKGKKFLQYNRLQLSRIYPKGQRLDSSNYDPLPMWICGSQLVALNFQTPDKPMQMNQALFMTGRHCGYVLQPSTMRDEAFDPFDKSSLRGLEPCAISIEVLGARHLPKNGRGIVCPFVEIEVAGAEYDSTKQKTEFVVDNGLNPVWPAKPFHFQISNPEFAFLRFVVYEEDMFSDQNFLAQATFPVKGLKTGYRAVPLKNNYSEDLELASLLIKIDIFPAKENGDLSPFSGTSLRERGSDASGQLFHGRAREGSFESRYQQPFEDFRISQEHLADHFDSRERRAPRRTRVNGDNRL


How the values were obtained:
[1] = molecular target: T1, PLCγ1 cSH2 domain, wild type (human); assay: NMR titration; binding of phosphopeptides to the SH2 domains of PLCγ1 (Figure S5); 25°C; both purified
[2] = molecular target: PLCγ1 nSH2 domain (human); assay: NMR titration; 15N-labelled spPH, nSH2 or cSH2 domain observed by 1H-15N HSQC, unlabelled PLC-core (H335A) added up to 1:1; 25°C; for cSH2 then the phosphopeptide NPGFpYVEANPMP to 1:1:1; both purified
[3] = molecular target: PLCγ1 split PH (spPH) domain (human); assay: as above

| binding [1] | binding [2] | binding [3] | Binder |
| --- | --- | --- | --- |
| binds | – | – | NPGFYVEANPMP (phosphotyrosine at 783 (fifth residue of the peptide)) [PLCγ1-derived phosphopeptide from the cSH2-SH3 linker (779NPGFpYVEANPMP790)] |
| – | no binding | no binding | PLCγ1 PLC-core (residues 13−1215, Δ488–933, H335A) (domain or fragment, UniProt P19174) GPGAPSDAEVLHLCRSLEVGTVMTLFYSKKSQRPERKTFQVKLETRQITWSRGADKIEGAIDIREIKEIRPGKTSRDFDRYQEDPAFRPDQSHCFVILYGMEFRLKTLSLQATSEDEVNMWIKGLTWLMEDTLQAPTPLQIERWLRKQFYSVDRNREDRISAKDLKNMLSQVNYRVPNMRFLRERLTDLEQRSGDITYGQFAQLYRSLMYSAQKTMDLPFLEASTLRAGERPELCRVSLPEFQQFLLDYQGELWAVDRLQVQEFMLSFLRDPLREIEEPYFFLDEFVTFLFSKENSVWNSQLDAVCPDTMNNPLSHYWISSSANTYLTGDQFSSESSLEAYARCLRMGCRCIELDCWDGPDGMPVIYHGHTLTTKIKFSDVLHTIKEHAFVASEYPVILSIEDHCSIAQQRNMAQYFKKVLGDTLLTKPVEISADGLPSPNQLKRKILIKHKKLAEGSAYEEVPTSMMYSENDISDARLTEGKIMERRKKIALELSELVVYCRPVPFDEEKIGTERACYRDMSSFPETKAEKYVNKAKGKKFLQYNRLQLSRIYPKGQRLDSSNYDPLPMWICGSQLVALNFQTPDKPMQMNQALFMTGRHCGYVLQPSTMRDEAFDPFDKSSLRGLEPCAISIEVLGARHLPKNGRGIVCPFVEIEVAGAEYDSTKQKTEFVVDNGLNPVWPAKPFHFQISNPEFAFLRFVVYEEDMFSDQNFLAQATFPVKGLKTGYRAVPLKNNYSEDLELASLLIKIDIFPAK |
